# Results are given in words; binding and its absence hold for the method and conditions named. Binding seen in cells or lysates may run through a third protein. Some binding calls cover weakened binding; strength is not graded here. For some of these results: Sequences can lack the tags named with a protein.
# Amino acid sequences for entries named in this document (tags omitted).
# UniProt P25963: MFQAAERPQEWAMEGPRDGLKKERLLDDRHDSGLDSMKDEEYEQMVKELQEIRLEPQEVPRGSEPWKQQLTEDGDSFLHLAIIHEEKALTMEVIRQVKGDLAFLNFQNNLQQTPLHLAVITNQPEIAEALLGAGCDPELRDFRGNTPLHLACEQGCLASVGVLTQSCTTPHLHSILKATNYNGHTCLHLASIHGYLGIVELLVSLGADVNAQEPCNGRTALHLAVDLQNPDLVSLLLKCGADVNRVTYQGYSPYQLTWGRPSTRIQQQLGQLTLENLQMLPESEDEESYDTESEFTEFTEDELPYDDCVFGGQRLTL
# UniProt Q04206: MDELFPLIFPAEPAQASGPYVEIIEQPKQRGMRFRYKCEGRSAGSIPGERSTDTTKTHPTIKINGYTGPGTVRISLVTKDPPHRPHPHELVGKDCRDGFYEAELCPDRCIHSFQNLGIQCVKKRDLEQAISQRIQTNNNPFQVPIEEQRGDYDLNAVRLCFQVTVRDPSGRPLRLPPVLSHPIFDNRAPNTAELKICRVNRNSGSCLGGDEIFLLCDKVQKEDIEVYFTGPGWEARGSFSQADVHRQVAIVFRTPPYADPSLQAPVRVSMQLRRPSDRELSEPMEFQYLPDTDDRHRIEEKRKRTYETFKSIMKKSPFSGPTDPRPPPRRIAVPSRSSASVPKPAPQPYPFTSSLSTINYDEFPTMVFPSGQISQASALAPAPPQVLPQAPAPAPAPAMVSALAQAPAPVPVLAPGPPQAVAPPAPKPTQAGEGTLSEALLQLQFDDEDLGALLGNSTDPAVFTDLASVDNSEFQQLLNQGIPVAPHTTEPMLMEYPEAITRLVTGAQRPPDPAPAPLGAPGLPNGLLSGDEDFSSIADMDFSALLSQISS
# Legend:
# [1] = target: T1, Retinoic acid receptor gamma (RARγ), endogenous (human (endogenous in C28/I2)) (UniProt P13631); test: co-IP; endogenous co-IP: C28/I2 cell lysate, IP with rabbit anti-RARγ antibody overnight at 4°C, protein A/G magnetic beads, washed with TBS four times, western blot
# T1 sequence: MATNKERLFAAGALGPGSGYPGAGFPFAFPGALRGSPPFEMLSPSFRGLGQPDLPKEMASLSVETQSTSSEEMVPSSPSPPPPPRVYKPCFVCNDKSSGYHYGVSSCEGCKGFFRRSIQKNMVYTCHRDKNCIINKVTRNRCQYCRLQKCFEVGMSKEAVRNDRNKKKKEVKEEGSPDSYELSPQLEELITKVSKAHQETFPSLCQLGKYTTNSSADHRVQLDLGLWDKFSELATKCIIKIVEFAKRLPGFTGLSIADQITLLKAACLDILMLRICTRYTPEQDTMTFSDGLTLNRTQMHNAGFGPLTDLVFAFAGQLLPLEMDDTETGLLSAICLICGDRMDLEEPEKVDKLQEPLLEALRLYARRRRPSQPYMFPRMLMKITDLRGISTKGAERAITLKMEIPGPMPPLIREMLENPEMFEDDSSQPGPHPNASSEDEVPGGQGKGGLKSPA
# [2] = target: T2, RARγ-Flag (retinoic acid receptor gamma with Flag tag) (UniProt P13631); test: co-IP; lysate of RARγ-Flag C28/I2 cells, IP with anti-Flag antibody overnight at 4°C, protein A/G magnetic beads, washed with TBS four times, western blot
# T2 sequence: T1 sequence
binding [1],binding [2],Substance
binds,binds,IκBα (from UniProt P25963 1-317)
no binding,no binding,P65 (from UniProt Q04206 1-551)
